Results reported in publication PMC5356551.
These are yes or no findings as the source states them, for the method shown. In cells and extracts the contact can be indirect. Some binding calls cover weakened binding; strength is not graded here.

The chains behind the UniProt entries cited, without tags or fusion partners. Where a name states a change or a piece, a line headed by the entry shows the natural chain unless it says otherwise. Residues count along the entry.
UniProt P17931: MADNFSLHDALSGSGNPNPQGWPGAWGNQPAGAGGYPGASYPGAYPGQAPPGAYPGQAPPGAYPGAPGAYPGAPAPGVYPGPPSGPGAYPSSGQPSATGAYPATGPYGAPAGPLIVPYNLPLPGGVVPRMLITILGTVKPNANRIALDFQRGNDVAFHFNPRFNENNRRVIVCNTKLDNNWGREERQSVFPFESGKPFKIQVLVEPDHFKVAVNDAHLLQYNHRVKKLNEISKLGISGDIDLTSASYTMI
Flag-galectin-3 amino acids 111-250 (carbohydrate recognition domain): residues 111-250 of P17931
UniProt P46531: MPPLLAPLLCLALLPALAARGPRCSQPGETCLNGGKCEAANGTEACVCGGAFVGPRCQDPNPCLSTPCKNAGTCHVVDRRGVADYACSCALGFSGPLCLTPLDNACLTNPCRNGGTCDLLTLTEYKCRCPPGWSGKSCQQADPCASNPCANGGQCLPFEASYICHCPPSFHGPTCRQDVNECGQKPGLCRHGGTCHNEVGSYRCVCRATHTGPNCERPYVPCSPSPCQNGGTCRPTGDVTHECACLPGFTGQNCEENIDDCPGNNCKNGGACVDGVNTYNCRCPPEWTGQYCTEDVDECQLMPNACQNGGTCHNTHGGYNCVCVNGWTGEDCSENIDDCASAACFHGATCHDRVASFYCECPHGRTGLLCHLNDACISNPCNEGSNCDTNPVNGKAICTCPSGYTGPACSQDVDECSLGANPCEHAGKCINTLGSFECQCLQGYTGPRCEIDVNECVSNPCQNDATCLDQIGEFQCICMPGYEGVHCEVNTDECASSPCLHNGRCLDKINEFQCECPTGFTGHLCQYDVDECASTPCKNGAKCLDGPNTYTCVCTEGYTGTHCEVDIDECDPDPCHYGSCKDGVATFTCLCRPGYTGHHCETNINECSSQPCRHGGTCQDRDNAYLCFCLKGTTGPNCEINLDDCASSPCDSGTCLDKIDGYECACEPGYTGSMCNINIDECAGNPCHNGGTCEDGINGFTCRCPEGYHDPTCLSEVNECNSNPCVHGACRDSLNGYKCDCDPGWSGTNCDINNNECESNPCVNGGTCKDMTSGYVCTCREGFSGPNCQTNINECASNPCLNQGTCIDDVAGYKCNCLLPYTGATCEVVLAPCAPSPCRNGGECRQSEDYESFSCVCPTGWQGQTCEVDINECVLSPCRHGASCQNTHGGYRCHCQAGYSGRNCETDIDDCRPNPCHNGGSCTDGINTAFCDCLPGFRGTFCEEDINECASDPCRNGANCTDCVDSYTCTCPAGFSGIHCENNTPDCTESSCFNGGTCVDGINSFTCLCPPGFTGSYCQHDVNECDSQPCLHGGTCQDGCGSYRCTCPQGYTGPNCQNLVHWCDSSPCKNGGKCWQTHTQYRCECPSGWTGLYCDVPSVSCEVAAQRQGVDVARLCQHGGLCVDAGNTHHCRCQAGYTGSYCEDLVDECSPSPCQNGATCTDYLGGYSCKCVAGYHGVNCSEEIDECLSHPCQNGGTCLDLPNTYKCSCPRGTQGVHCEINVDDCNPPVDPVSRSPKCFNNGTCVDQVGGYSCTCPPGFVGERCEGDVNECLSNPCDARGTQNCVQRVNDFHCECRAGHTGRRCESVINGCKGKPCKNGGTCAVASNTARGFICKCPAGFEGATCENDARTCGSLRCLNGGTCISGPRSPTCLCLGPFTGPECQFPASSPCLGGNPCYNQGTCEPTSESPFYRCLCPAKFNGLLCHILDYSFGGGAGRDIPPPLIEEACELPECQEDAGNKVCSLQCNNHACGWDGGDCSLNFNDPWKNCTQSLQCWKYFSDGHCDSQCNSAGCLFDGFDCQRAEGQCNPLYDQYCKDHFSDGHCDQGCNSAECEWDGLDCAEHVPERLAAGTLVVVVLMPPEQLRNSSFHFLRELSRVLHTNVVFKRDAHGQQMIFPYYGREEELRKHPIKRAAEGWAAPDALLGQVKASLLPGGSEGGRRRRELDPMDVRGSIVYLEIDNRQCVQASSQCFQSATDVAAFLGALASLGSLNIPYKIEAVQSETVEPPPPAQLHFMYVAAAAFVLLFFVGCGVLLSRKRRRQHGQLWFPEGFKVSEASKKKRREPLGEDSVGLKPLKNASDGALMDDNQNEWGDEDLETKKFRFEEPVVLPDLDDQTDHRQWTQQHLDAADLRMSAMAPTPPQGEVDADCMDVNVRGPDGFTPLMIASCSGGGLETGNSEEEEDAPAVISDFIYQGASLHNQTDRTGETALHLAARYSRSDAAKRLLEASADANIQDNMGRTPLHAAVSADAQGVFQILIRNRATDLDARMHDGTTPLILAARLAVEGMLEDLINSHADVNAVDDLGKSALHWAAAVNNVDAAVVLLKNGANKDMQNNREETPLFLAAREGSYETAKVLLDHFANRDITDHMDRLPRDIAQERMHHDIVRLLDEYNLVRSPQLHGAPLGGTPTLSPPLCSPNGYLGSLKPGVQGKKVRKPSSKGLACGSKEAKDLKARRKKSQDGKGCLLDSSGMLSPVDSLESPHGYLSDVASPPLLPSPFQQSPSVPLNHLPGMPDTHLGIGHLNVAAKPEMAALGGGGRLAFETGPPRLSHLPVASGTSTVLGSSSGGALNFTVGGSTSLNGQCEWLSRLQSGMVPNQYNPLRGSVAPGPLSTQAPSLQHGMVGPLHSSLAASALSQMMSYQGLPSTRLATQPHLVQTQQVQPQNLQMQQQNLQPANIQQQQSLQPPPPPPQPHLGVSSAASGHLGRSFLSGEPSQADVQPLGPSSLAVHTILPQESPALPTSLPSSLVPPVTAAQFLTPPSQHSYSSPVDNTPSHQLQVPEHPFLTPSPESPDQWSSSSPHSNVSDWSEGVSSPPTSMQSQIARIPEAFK
Notch1 (human (endogenous in SKOV3)): residues 19-2555 of P46531

Assays:
[1] = target: galectin-3 (human (endogenous in SKOV3)) (UniProt P17931); test: co-IP; endogenous proteins in SKOV3 lysate (RIPA buffer); A/G agarose beads coated with antibodies against galectin-3, Notch1 or activated Notch1 (NICD1); western blot; mouse/rabbit IgG as negative control
[2] = target: Flag-galectin-3 amino acids 111-250 (carbohydrate recognition domain) (UniProt P17931); test: co-IP; A2780 cells transfected with Flag-galectin-3 domains; lysate precipitated with anti-FLAG on A/G agarose beads; NICD1 detected by western blot
[3] = target: Notch1 (human (endogenous in SKOV3)) (UniProt P46531); test: co-IP; endogenous proteins in SKOV3 lysate (RIPA buffer); A/G agarose beads coated with antibodies against galectin-3, Notch1 or activated Notch1 (NICD1); western blot; mouse/rabbit IgG as negative control

Substance	binding [1]	binding [2]	binding [3]
Notch1 (from UniProt P46531 19-2555) (receptor)	binds	–	–
Notch1 intracellular domain (NICD1) (from UniProt P46531 1754-2555) (domain or fragment)	binds	binds	–
galectin-3 (from UniProt P17931 1-250)	–	–	binds
